PubChem BioAssay AID504744 – Drosophila RNAi Screening Center – 2011

- Purpose: 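Uncover factors, including feedback loops, that control dAkt activation in fly cells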 (primary screen)
- Cells: Drosophila Kc167 cells
- Knock-down reagent: long dsRNA against Drosophila genes, 250 ng dsRNA per well of a 384-well plate
- Timing: 3 days of knock-down, then overnight serum-free starvation before stimulation
- Conditions: bovine insulin at 387 nM for 10 minutes after 12 h without serum
- Measured: 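In-cell antibody fluorescence for phospho-dAkt in each well over DNA-dye signal, with log2 residuals expressed as z-scores adjusted for cell count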
- Active means: 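Under insulin, a gene counts as a hit if the average z-score of two replicates lies above 2.5 or below -2.5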
The screen tested about 23,000 reagents; this is a random part of those with a known target gene and a result. Over the whole deposit, 98 (0.43%) are marked active. 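Only hit calls are given; the phospho-dAkt signals, z-scores and hit direction were not deposited.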 The numbers tell different reagents against one gene apart. A plus sign joins genes that one reagent is predicted to hit.

CG10321
- Call: inactive

CG6733
- Call: inactive

CG15545
- Call: inactive

CG2186
- Call: inactive

CG42544
- Call: inactive

DUBAI + Tmem18
- Call: inactive

hui
- Call: inactive

moody
- Call: inactive

CG44433 #1
- Call: inactive

CG44433 #2
- Call: inactive

CG2964
- Call: inactive

CG10041
- Call: inactive

CG13784 #1
- Call: inactive

CG13784 #2
- Call: inactive

Nle
- Call: inactive

viaf
- Call: inactive

Plap
- Call: inactive

Prp6 #1
- Call: inactive

Prp6 #2
- Call: inactive

CG12477
- Call: inactive

mthl13
- Call: inactive

CG10026
- Call: inactive

Exo84
- Call: inactive

CG9896 #1
- Call: inactive

CG9896 #2
- Call: inactive

HemK2 + Snapin #1
- Call: inactive

HemK2 + Snapin #2
- Call: inactive

CG4452
- Call: inactive

CG14696
- Call: inactive

CG13124
- Call: inactive

RpS29 + snoRNA:Psi18S-1275
- Call: inactive

Tango2 #1
- Call: inactive

Tango2 #2
- Call: inactive

blow
- Call: inactive

soti
- Call: inactive

CG11504
- Call: inactive

CG15870
- Call: inactive

CG2772
- Call: inactive

POLDIP2
- Call: inactive

CG18094
- Call: inactive

CG14694
- Call: inactive

Ufc1
- Call: inactive

Ih
- Call: inactive

lz #1
- Call: inactive

lz #2
- Call: inactive

4E-T #1
- Call: inactive

4E-T #2
- Call: inactive

CG34398 #1
- Call: inactive

CG34398 #2
- Call: inactive

CG34398 #3
- Call: inactive

CG34398 #4
- Call: inactive

Dora #1
- Call: inactive

Dora #2
- Call: inactive

Dora #3
- Call: inactive

Dora #4
- Call: inactive

Dop1R1 #1
- Call: inactive

Dop1R1 #2
- Call: inactive

Reformatted: 7 of the entries above.
{"gene":"DUBAI + Tmem18","reagent":1,"Call":"inactive"}
{"gene":"hui","reagent":1,"Call":"inactive"}
{"gene":"moody","reagent":1,"Call":"inactive"}
{"gene":"CG44433","reagent":1,"Call":"inactive"}
{"gene":"CG44433","reagent":2,"Call":"inactive"}
{"gene":"CG2964","reagent":1,"Call":"inactive"}
{"gene":"CG10041","reagent":1,"Call":"inactive"}
